Source: patent US11014961B2, “Self-labeling miniproteins and conjugates comprising them” (priority 2017, dated 2021)
No end group written: not given here.

Experiment: Second order rate constant of the reaction between miniprotein (MP) and capture agent (CA), LC-MS TIC peak integration
Type: biochemical
Settings: pH 6-9.5, buffers MES/HEPES/TAPS/CAPS

Substance: MNQKYKMAKACFFAFLEHLKKRKLYPMSG-NH2 [MP01-Gen4]
- midpoint of reaction rate versus pH curve: ~8 pH
